Consider one compound from patent publication US7112698B2, “4-(c2-6alkoxy)-substituted chalcones as therapeutic agents” (Spear Therapeutics Limited, priority 2001, dated 2006).

Assay [1] relates to MCF-10A normal breast cell line. As to the kind of experiment: MCF-10A normal cell line cytotoxicity assay. Type of assay: cell-based. Conditions: Homo sapiens, without TCDD. As to the method: (§1) Cells were maintained in RPMI 1640 with Glutamax 1 (Life Technologies) with 10% (v/v) heat inactivated foetal calf serum (Hybrimax. Sigma), at 37° C., 5% CO2/95% air with 100% humidity and passaged using trypsin/EDTA. 1×10^3 cells were plated out in 100 μl medium per well of 96-well flat-bottomed plates (Fisher). After 4 hours to allow adherance, 100 μl of medium containing TCDD (British Greyhound Chromatography; 10 μM stock in DMSO (dimethylsulfoxide)) or medium with 0.2% (v/v) DMSO as control was added to each well to give a final concentration of 10 nM TCDD, 0.1% (v/v) DMSO, for 24 hours to allow maximal CYP expression. The medium was then carefully aspirated and 100 μl fresh medium added. Within 30 minutes test compound was added in quadruplicate in 100 μl medium (with or without inhibitors) at double the final concentration from 100 mM stock in DMSO to give a final concentration of not more than 0.1% (v/v) DMSO, or DMSO solvent alone at 0.1% (v/v) as control. The cells were then allowed to grow on for 96 hours to give 80–90% confluence in the control wells. […] Plates were vortexed and the absorbance at 540 nm determined using a plate reader. […]
(§2) The tumour selectivity differential factor (TSDF) is calculated by dividing the IC50 obtained from the MCF-10A data by the IC50 obtained from the MDA-468 data.

The test system of assay [2] is MDA-468 advanced breast cancer cell line. As to the kind of experiment: MDA-468 tumour cell line cytotoxicity assay. Type of assay: cell-based, human. The procedure: as §1, §2

For orientation: IC50 means the midpoint of a concentration-inhibition curve. Higher therefore signals weaker potency. As to `CC/C(=C(\c1ccccc1)c1ccc(OCCN(C)C)cc1)c1ccccc1` [Tamoxifen, tamoxifen], the IC50 in assay [1] turned out to be 6.3 µM; in assay [2] (Homo sapiens, without TCDD), 4 µM. The “Tumour Selectivity Differential Factor” value in assay [2] (IC50 MCF-10A divided by IC50 MDA-468 (Table 2)) was 1.6.
